Test results as given in article PMC7595121.
Results are given in words; binding and its absence hold for the method and conditions named. In cells and extracts the contact can be indirect. Some entries that bind do so weakly or less than the wild type.

By UniProt entry, the sequences of proteins in these tests, tags left out.
UniProt Q15796: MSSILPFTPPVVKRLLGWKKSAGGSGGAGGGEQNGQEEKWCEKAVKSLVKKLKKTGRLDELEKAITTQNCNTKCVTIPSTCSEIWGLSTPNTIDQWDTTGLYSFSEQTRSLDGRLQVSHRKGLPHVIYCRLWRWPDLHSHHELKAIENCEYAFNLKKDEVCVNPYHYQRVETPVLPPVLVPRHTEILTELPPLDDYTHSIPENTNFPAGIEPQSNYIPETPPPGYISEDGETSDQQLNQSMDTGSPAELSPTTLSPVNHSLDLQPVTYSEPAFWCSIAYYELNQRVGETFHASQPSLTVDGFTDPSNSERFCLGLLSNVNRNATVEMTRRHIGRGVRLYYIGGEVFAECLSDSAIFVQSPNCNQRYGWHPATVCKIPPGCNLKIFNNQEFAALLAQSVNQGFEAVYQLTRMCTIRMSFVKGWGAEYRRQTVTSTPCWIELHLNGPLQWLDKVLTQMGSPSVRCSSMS
UniProt Q13485: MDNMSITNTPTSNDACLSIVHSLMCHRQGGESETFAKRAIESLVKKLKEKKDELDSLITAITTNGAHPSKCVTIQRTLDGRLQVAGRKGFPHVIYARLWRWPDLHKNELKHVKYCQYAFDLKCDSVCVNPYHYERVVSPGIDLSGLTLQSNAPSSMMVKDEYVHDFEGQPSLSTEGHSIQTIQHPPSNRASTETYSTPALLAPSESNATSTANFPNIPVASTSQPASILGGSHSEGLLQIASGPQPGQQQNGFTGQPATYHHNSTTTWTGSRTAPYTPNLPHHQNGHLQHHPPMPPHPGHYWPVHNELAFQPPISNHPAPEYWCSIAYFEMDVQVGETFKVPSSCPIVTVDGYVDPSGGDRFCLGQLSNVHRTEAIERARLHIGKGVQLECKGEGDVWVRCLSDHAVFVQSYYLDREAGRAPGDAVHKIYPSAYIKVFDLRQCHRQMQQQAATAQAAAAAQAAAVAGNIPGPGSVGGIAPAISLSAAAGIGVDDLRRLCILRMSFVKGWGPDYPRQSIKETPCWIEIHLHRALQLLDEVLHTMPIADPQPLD
UniProt P84022: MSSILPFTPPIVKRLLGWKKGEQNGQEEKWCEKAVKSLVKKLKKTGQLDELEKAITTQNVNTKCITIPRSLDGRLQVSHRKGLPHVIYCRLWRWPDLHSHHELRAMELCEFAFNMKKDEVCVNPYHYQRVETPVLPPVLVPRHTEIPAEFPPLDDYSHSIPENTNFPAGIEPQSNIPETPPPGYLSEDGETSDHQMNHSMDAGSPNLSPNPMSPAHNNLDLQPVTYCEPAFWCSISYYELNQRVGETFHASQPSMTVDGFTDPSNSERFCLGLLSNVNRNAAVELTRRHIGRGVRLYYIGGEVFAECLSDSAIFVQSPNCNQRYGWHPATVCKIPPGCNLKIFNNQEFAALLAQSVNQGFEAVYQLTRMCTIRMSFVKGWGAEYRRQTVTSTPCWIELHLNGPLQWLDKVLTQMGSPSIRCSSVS
UniProt Q9BZS1: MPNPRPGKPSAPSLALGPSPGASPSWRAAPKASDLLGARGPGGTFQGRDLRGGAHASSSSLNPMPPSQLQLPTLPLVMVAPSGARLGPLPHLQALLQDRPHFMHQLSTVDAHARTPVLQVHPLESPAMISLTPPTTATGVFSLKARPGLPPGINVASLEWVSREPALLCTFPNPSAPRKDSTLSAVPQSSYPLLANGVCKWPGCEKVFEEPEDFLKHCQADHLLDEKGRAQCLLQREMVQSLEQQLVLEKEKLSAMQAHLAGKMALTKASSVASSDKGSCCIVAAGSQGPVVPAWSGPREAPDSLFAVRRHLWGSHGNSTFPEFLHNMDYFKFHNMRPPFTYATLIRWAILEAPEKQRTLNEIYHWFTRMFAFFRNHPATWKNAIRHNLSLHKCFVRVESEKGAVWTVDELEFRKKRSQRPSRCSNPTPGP

Experiments:
Smad2 [1] = target: Smad2 (UniProt Q15796); test: co-IP; PLC/PRF/5 cells transfected or co-transfected for 24 h; nuclear protein extract; ANTI-FLAG M2 Affinity Gel, 4 °C overnight; western blot
Smad4 [2] = target: Smad4 (UniProt Q13485); test: as above
Smad3 [3] = target: Smad3 (UniProt P84022); test: as above
Smad2 [4] = target: Smad2 (UniProt Q15796); test: co-IP; HEK293T cells transfected or co-transfected for 24 h; nuclear protein extract; ANTI-FLAG M2 Affinity Gel, 4 °C overnight; western blot
Smad4 [5] = target: Smad4 (UniProt Q13485); test: as above
Smad3 [6] = target: Smad3 (UniProt P84022); test: as above

Measured: binding

FOXP3 (full length of FOXP3) (from UniProt Q9BZS1 1-431)
binds: Smad2 [1] | Smad4 [2] | Smad3 [3] | Smad2 [4] | Smad4 [5] | Smad3 [6]
